Assay [1] has as its target FLAG-DDB2 (UniProt Q92466). Put plainly: co-IP; HeLa transiently expressing FLAG-tagged protein (24 hrs), whole cell lysates, Flag-M2 agarose beads 4 hrs 4°C, washed with IP buffer (300 mM NaCl, 0.3% Triton X-100), eluted with 2X-SB or Flag-peptide; blots for endogenous proteins; some cells UV-irradiated (20 J/m^2) and left to recover.
The target in a further assay is T1, FLAG-BAF (UniProt O75531).
T1 sequence: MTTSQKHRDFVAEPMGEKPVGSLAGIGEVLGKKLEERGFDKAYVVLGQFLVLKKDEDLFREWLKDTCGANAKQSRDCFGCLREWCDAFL
Put plainly: co-IP; stable tetracycline-inducible FLAG-BAF HEK293 cells; FLAG-BAF precipitated, endogenous partners detected; data not shown.

By UniProt entry, the sequences of proteins in these tests, tags left out. Residues count along the entry.
UniProt Q92466: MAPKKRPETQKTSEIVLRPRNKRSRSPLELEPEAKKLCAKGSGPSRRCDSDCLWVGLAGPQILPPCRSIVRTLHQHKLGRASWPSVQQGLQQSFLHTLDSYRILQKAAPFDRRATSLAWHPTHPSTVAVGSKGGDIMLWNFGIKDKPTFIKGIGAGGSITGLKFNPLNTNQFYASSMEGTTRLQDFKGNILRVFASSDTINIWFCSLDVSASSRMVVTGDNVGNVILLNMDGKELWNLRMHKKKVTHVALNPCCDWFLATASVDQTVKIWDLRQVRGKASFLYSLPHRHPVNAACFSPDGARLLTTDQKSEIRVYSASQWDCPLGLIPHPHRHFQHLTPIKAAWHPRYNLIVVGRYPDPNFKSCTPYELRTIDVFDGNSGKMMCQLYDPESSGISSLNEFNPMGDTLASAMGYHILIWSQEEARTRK
UniProt P09874: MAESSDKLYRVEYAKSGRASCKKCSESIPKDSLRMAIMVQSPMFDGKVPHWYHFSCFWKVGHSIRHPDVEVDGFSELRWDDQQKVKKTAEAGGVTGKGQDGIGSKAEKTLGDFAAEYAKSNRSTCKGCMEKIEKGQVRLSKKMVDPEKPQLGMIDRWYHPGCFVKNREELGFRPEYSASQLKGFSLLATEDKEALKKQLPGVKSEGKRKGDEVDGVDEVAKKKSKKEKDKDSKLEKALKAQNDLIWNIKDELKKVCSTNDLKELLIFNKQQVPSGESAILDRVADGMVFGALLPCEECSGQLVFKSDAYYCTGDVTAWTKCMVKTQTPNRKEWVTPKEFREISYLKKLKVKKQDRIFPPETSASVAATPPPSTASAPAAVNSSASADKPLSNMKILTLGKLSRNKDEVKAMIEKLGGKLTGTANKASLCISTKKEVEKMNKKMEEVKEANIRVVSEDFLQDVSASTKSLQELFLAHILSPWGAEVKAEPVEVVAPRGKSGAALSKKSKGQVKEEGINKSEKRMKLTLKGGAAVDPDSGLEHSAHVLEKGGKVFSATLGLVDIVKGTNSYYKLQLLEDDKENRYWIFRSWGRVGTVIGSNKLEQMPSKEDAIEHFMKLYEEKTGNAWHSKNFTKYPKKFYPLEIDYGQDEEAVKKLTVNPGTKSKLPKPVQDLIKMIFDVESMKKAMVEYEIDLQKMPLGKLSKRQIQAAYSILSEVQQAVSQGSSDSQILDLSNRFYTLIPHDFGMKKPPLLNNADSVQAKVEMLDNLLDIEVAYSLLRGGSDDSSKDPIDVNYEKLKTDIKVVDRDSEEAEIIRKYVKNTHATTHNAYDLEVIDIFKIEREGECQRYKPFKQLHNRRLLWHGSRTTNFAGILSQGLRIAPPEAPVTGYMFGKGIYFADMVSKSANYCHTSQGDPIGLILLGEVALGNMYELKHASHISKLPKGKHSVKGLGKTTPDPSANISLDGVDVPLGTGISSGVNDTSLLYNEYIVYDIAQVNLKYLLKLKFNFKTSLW
UniProt Q96KQ7: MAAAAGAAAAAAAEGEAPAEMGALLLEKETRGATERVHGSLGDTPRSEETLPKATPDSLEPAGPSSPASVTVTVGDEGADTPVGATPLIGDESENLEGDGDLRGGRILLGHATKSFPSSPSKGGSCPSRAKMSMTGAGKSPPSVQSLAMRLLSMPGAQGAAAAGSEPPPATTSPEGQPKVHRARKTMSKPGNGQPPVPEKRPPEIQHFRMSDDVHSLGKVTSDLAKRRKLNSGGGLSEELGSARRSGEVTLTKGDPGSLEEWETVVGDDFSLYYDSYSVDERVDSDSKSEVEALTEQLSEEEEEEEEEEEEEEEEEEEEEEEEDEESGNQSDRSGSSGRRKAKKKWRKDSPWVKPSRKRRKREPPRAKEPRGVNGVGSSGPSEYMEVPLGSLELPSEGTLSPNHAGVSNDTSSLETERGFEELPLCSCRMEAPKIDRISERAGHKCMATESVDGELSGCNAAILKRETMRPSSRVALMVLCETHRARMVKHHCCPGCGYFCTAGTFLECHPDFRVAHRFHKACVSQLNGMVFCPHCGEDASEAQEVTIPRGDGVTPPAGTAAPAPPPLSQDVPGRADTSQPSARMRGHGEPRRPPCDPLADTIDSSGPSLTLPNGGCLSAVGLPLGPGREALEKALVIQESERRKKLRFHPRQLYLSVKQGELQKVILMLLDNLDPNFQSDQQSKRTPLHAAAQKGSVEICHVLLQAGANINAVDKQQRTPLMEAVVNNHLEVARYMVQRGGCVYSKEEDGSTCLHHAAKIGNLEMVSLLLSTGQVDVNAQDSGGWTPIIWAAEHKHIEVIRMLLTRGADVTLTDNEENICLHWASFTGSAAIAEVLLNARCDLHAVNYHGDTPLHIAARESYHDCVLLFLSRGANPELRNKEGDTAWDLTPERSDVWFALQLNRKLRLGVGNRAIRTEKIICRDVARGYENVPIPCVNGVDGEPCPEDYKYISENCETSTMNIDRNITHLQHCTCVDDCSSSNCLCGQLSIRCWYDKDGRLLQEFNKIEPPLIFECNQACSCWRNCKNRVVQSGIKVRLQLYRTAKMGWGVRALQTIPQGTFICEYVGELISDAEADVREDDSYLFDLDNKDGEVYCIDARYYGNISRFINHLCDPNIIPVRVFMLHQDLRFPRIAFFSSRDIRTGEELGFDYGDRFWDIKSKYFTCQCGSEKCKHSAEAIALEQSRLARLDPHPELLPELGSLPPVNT
UniProt Q01105: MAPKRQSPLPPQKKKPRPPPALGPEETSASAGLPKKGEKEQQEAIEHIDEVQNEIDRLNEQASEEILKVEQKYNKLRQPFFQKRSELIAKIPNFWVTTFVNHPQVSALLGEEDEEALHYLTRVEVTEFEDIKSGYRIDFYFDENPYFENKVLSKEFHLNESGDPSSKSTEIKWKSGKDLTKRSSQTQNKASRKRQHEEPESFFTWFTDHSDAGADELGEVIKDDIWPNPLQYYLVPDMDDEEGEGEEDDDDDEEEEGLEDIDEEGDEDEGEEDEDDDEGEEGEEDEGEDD
UniProt P16403: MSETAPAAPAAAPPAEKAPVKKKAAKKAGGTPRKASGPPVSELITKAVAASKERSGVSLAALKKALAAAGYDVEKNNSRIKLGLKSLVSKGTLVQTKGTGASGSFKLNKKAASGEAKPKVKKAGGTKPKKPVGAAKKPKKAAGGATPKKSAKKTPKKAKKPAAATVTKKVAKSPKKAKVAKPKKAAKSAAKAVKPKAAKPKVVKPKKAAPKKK
UniProt Q16576: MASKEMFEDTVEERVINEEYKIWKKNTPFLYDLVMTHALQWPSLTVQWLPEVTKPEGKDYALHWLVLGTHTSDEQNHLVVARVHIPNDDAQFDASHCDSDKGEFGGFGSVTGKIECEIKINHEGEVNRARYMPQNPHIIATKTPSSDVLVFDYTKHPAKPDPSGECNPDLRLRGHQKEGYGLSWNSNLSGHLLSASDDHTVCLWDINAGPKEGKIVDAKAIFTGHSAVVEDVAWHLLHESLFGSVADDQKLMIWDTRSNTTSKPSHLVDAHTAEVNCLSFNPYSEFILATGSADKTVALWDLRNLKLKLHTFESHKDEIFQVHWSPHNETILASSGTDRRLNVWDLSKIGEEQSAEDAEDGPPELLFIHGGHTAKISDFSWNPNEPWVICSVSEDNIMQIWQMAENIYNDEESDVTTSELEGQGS
UniProt Q13619: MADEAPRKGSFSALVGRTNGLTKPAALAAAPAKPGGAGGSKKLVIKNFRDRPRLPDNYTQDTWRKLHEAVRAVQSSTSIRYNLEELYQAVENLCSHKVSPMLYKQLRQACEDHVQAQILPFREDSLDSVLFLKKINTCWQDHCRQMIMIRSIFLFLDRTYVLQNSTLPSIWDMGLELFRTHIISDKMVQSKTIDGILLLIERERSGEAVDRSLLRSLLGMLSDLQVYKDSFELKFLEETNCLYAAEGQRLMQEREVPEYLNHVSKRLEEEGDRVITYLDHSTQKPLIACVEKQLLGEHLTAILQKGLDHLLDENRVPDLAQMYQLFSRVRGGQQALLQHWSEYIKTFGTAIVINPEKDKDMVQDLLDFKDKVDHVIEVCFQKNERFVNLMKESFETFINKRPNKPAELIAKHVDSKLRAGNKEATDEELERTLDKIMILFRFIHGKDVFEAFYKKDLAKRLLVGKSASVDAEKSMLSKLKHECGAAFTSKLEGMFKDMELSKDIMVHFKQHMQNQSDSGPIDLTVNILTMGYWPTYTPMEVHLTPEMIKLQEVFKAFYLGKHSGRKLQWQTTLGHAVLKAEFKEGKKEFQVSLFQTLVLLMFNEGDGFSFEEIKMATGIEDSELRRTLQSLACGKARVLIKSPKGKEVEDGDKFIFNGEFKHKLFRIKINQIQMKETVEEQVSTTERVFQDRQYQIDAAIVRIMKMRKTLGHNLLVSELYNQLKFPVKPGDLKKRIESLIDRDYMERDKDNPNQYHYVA
UniProt Q92785: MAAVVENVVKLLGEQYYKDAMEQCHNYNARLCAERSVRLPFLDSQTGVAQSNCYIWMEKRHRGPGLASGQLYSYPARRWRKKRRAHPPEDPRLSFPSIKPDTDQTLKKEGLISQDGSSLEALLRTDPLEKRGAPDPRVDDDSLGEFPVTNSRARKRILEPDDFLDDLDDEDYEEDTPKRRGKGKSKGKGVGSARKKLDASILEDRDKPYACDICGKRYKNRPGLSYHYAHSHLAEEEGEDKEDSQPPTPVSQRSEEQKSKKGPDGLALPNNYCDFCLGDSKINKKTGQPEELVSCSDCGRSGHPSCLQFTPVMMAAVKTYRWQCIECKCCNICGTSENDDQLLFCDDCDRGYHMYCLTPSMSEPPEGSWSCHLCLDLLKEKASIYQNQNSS
UniProt Q16531: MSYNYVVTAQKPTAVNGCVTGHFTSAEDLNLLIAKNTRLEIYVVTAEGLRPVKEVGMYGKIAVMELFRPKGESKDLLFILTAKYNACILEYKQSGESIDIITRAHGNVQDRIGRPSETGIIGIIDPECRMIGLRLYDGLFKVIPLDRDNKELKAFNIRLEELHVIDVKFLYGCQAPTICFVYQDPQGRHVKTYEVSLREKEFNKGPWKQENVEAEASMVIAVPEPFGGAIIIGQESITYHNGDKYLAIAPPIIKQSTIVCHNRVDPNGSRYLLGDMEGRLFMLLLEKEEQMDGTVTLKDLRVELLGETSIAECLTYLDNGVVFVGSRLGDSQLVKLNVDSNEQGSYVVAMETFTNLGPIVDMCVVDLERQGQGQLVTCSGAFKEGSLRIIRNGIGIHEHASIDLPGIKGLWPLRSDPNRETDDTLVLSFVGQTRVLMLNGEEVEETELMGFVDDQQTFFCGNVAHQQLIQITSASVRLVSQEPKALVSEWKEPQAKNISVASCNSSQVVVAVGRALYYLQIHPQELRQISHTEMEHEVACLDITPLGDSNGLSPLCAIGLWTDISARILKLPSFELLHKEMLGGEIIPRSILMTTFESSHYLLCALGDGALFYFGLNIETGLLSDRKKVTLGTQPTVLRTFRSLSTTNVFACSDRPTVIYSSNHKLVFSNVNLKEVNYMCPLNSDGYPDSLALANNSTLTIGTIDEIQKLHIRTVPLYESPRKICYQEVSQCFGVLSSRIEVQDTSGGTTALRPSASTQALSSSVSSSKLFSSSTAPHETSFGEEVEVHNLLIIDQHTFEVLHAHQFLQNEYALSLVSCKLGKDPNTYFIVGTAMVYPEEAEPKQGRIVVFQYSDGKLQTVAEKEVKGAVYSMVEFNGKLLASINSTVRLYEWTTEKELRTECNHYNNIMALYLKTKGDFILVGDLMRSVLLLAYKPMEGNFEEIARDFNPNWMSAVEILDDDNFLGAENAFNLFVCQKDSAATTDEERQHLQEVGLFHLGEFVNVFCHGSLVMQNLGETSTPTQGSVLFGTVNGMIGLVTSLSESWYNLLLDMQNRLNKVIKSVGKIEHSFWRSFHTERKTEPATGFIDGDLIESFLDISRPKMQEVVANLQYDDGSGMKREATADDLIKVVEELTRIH
UniProt P02545, residues 1-646: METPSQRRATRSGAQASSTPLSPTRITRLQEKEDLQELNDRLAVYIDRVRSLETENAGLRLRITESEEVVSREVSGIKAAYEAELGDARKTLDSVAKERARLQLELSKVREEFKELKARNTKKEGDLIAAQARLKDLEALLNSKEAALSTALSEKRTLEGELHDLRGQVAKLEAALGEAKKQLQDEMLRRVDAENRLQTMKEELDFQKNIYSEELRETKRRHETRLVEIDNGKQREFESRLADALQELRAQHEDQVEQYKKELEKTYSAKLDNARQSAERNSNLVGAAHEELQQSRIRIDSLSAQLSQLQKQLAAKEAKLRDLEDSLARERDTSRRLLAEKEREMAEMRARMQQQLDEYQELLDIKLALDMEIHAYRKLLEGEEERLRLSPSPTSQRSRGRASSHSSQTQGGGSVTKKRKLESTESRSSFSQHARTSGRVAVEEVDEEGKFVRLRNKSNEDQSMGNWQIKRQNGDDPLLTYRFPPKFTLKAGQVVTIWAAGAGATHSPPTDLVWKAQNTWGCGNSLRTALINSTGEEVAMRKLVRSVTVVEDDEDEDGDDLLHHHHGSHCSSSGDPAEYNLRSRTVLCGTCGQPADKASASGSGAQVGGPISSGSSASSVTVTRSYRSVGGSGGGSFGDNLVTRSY

Assay [2] deals with FLAG-PARP1 (human) (UniProt P09874). Put plainly: co-IP; HeLa transiently expressing FLAG-tagged protein (24 hrs), whole cell lysates, Flag-M2 agarose beads 4 hrs 4°C, washed with IP buffer (300 mM NaCl, 0.3% Triton X-100), eluted with 2X-SB or Flag-peptide; blots for endogenous proteins; some cells UV-irradiated (20 J/m^2) and left to recover.
Assay [3] shares this target. Put plainly: co-IP; FLAG-PARP1 from HeLa under low stringency (150 mM NaCl, 0.15% TX-100); data not shown.
Another assay concerns the target G9a, FLAG- or GFP-tagged (UniProt Q96KQ7). Put plainly: co-IP; tagged G9a and SET/I2PP2A transiently expressed in HeLa, blot for endogenous BAF; ascribed to a manuscript in preparation.
For assay [4], the target named is SET/I2PP2A, FLAG- or GFP-tagged (UniProt Q01105). Described as above.
The next assay has as its target GFP-H1.2 (UniProt P16403). Put plainly: co-IP; HeLa transiently expressing GFP-tagged protein (24 hrs), untreated or UV-irradiated with 1 hr recovery; whole cell lysates, GFP antibody and GammaBind G sepharose; blots for endogenous BAF and emerin.
A further assay has as its target GFP-RBBP4 (human) (UniProt Q09028). Described as above.
The target of the next assay is GFP-RBBP7 (human) (UniProt Q16576). The description is as above.
The target of another assay is FLAG-CUL4A (UniProt Q13619). Put plainly: co-IP; HeLa transiently expressing FLAG-tagged protein (24 hrs), whole cell lysates, Flag-M2 agarose beads 4 hrs 4°C, washed with IP buffer (300 mM NaCl, 0.3% Triton X-100), eluted with 2X-SB or Flag-peptide; blots for endogenous proteins; some cells UV-irradiated (20 J/m^2) and left to recover.
Assay [5] deals with FLAG-DDB2 (UniProt Q92466). The description is as above. This is another data set of the same source.
Assay [6] deals with FLAG-PARP1 (human) (UniProt P09874). The description is as above. The source holds these as a separate data set.
Another assay has as its target FLAG-Requiem (human) (UniProt Q92785). Described as above.

Like-named read-outs stand apart in the source and are kept apart here. Results are given in words; binding and its absence hold for the method and conditions named. Binding seen in cells or lysates may run through a third protein. Some entries that bind do so weakly or less than the wild type. For part of these data: Tags and fused reporters may be left off the sequences shown.

For the molecule “Damage-specific DNA binding protein 1 (from UniProt Q16531 1-1140)”, in the assay with FLAG-DDB2 [1], the binding result is reported as “binds”.

On to “endogenous PARP1 of HEK293 cells (from UniProt P09874 1-1014)”, for which the binding result with FLAG-BAF is listed as “binds”.

Regarding “endogenous RBBP4 of HEK293 cells (from UniProt Q09028 1-425)”, the binding entry with FLAG-BAF is “binds”.

For the molecule “endogenous DDB1 of HEK293 cells (from UniProt Q16531 1-1140)”, the binding entry in the assay with FLAG-BAF was “binds”.

In the case of Lamin A/C (from UniProt P02545 1-646), the binding result with FLAG-PARP1 (human) [2] is recorded as “binds”.

B1: endogenous Barrier-to-autointegration factor (BAF) (protein, UniProt O75531 1-89)
chain: T1 sequence
With B1, the binding result is listed as “binds” with FLAG-PARP1 (human) [3]; “binds” with G9a, FLAG- or GFP-tagged; “binds” in assay [4]; “binds” with GFP-H1.2; “binds” with GFP-RBBP4 (human); “binds weakly” with GFP-RBBP7 (human). The binding entry with FLAG-CUL4A, with FLAG-DDB2 [5], with FLAG-PARP1 (human) [6] and with FLAG-Requiem (human) was “binds” throughout.
